Laboratory results reported in PubChem BioAssay AID248 (DTP/NCI, 2004).
The list is a part of this screen's results and no random one: it gathers tests that were run many times, whatever their T/C, doses with no T/C, and many T/C values between a quarter and a half above the control. Other doses and runs of a compound stand elsewhere. T/C: endpoint of the treated group in % of that of the vehicle group. Some doses have a count of surviving animals in place of a T/C: the source holds a T/C of zero for them, seemingly a mark for toxic or unscored doses. Some doses without a T/C left all or most animals alive at the check, yet need not have been tolerated: the source hardly ever lists a survival T/C far under the control, and the zero likely stands for such cases as well. Survivors were counted at the toxicity check, usually on the fifth day, unless a day is given; later deaths do not show. Schedules are NCI's codes, taken here to give the interval after Q, in days (D) or hours (H), and the number of doses after X. Some doses were run more than once; the results are listed from low to high. Some schedules carry Z or #; the key to these is not given. Where survival is the endpoint, this PubChem deposit counts one and a half times the control or more as active, and values a quarter to a half above the control carry no call in these data; other NCI protocols may use other cut-offs.

Test system: L1210 leukemia ip in BDF1 mice, survival T/C
Experiment: NCI In Vivo Anticancer Drug Screen. Data for tumor model L1210 Leukemia (intraperitoneal) in B6D2F1 (BDF1) mice
Settings: T/C endpoint: mean survival time, higher T/C = longer survival
[1] = dose: 100.0 mg/kg/injection, schedule: Q01DX009 (ip), vehicle: saline with Tween-80
[2] = dose: 400.0 mg/kg/injection, schedule: Q01DX009 (ip), vehicle: saline
[3] = dose: 400.0 mg/kg/injection, schedule: Q04DX003 (ip), vehicle: Klucel (hydroxypropylcellulose) (HPC)
[4] = dose: 40.0 mg/kg/injection, schedule: Q01DX001 (ip), vehicle: saline
[5] = dose: 50.0 mg/kg/injection, schedule: Q01DX001 (ip), vehicle: saline
[6] = dose: 200.0 mg/kg/injection, schedule: Q01DX001 (ip), vehicle: saline
[7] = dose: 400.0 mg/kg/injection, schedule: Q01DX001 (ip), vehicle: saline
[8] = dose: 100.0 mg/kg/injection, schedule: Q04DX003 (ip), vehicle: saline with Tween-80
[9] = dose: 200.0 mg/kg/injection, schedule: Q04DX003 (ip), vehicle: saline with Tween-80
[10] = dose: 400.0 mg/kg/injection, schedule: Q04DX003 (ip), vehicle: saline with Tween-80
[11] = dose: 100.0 mg/kg/injection, schedule: Q01DX001 (ip), vehicle: saline
[12] = dose: 400.0 mg/kg/injection, schedule: Q01DX009 (ip), vehicle: saline with Tween-80

## C=CCCC[P+](c1ccccc1)(c1ccccc1)c1ccccc1
dose: 50.0 mg/kg/injection, schedule: Q01DX009 (ip), vehicle: saline with Tween-80
  survivor count: 2 of 3
dose: 100.0 mg/kg/injection, schedule: Q01DX009 (ip), vehicle: saline
  survivor count: 0 of 3
dose: 200.0 mg/kg/injection, schedule: Q01DX009 (ip), vehicle: saline
  survivor count: 0 of 3

## CCCCCOc1ccc(C(=O)/C(Br)=C/C(=O)O)cc1
[1]
  survivor count: 2 of 6

## NCCC(c1ccccc1)c1ccccc1
dose: 150.0 mg/kg/injection, schedule: Q01DX001 (ip), vehicle: carboxymethylcellulose (CMC)
  survivor count: 1 of 6
dose: 300.0 mg/kg/injection, schedule: Q01DX001 (ip), vehicle: carboxymethylcellulose (CMC)
  survivor count: 0 of 6

## Cc1cc(=O)[nH]c(N/N=C/c2ccccc2O)n1
dose: 300.0 mg/kg/injection, schedule: Q01DX009 (ip), vehicle: Klucel (hydroxypropylcellulose) (HPC)
  survivor count: 4 of 6

## COc1ccccc1CN1CCCN(Cc2ccccc2OC)C1c1ccc(N(CCCl)CCCl)cc1C
[2]
  survivor count: 5 of 6
dose: 800.0 mg/kg/injection, schedule: Q01DX001 (ip), vehicle: saline
  survivor count: 6 of 6
dose: 800.0 mg/kg/injection, schedule: Q01DX009 (ip), vehicle: saline
  survivor count: 0 of 6

## C=CCCCCCCCCC(=O)O (tested in a mixture with another compound)
dose: 200.0 mg/kg/injection, schedule: Q01DX001 (ip), vehicle: carboxymethylcellulose (CMC)
  survivor count: 0 of 6
dose: 400.0 mg/kg/injection, schedule: Q01DX001 (ip), vehicle: carboxymethylcellulose (CMC)
  survivor count: 0 of 6

## C=CCc1cc(CNC(C)C)c(O)c(OC)c1
dose: 200.0 mg/kg/injection, schedule: Q04DX003 (ip), vehicle: Klucel (hydroxypropylcellulose) (HPC)
  survivor count: 0 of 6
[3]
  survivor count: 1 of 6

## O=[N+]([O-])c1cccc(Cl)c1Oc1cc(Cl)c(Cl)cc1Cl
dose: 20.0 mg/kg/injection, schedule: Q01DX001 (ip), vehicle: saline
  survivor count: 6 of 6
[4]
  survivor count: 6 of 6
dose: 75.0 mg/kg/injection, schedule: Q01DX001 (ip), vehicle: acetone
  survivor count: 4 of 6
dose: 150.0 mg/kg/injection, schedule: Q01DX001 (ip), vehicle: acetone
  survivor count: 3 of 6
dose: 300.0 mg/kg/injection, schedule: Q01DX001 (ip), vehicle: acetone
  survivor count: 0 of 6

## CN=C(N)c1ccc(N=C(N)c2ccc(Cl)c(C(N)=Nc3ccc(C(N)=NC)cc3)c2)cc1
dose: 40.0 mg/kg/injection, schedule: Q01DX Z (ip), vehicle: water
  survivor count: 1 of 6
dose: 80.0 mg/kg/injection, schedule: Q01DX Z (ip), vehicle: water
  survivor count: 0 of 6

## CC[C@@]1(O)C(=O)OCc2c1cc1n(c2=O)Cc2cc3ccccc3[n+]([O-])c2-1
dose: 2.0 mg/kg/injection, schedule: Q01DX015 (ip), vehicle: saline
  T/C: 144 % of control
dose: 4.0 mg/kg/injection, schedule: Q01DX015 (ip), vehicle: saline
  T/C: 131 % of control
dose: 16.0 mg/kg/injection, schedule: Q01DX015 (ip), vehicle: saline
  survivor count: 6 of 6
dose: 25.0 mg/kg/injection, schedule: Q01DX001 (ip), vehicle: saline
  T/C: 136 % of control
[5]
  T/C: 147 % of control

## COc1ccc(OC)c(C(O)C(C)NC(C)(C)C)c1 (configuration not stated)
[6]
  survivor count: 1 of 4
[7]
  survivor count: 1 of 4

## N#C/C(=C\c1ccco1)c1ccc([N+](=O)[O-])cc1
[8]
  survivor count: 1 of 6
[9]
  survivor count: 0 of 6
[10]
  survivor count: 0 of 6

## CCCCCCCCC(=O)N(CC(C)C)CC(C)C
dose: 100.0 mg/kg/injection, schedule: Q01DX009 (ip), vehicle: carboxymethylcellulose (CMC)
  survivor count: 3 of 3
dose: 400.0 mg/kg/injection, schedule: Q01DX009 (ip), vehicle: carboxymethylcellulose (CMC)
  survivor count: 4 of 6 and 3 of 3

## c1cc2cc3c(cc2cc1CC1=NCCc2cc4c(cc21)OCO4)OCO3
dose: 100.0 mg/kg/injection, schedule: Q01DX009 (ip), vehicle: other
  survivor count: 5 of 6

## CN(C)P(=O)(N(C)C)N1CC1
dose: 60.0 mg/kg/injection, schedule: Q01DX001 (ip), vehicle: saline
  T/C: 126 % of control
dose: 120.0 mg/kg/injection, schedule: Q01DX001 (ip), vehicle: saline
  T/C: 144 % of control
dose: 240.0 mg/kg/injection, schedule: Q01DX001 (ip), vehicle: saline
  survivor count: 6 of 6

## Cc1nc(N)c(N)nc1C
[1]
  survivor count: 3 of 6
[8]
  survivor count: 3 of 6

## O=C(CCC(=O)[O][Sn]([c]1ccccc1)([c]1ccccc1)[c]1ccccc1)[O][Sn]([c]1ccccc1)([c]1ccccc1)[c]1ccccc1
dose: 6.25 mg/kg/injection, schedule: Q01DX009 (ip), vehicle: saline with Tween-80
  survivor count: 0 of 6
dose: 12.5 mg/kg/injection, schedule: Q04DX003 (ip), vehicle: saline with Tween-80
  survivor count: 3 of 6
dose: 25.0 mg/kg/injection, schedule: Q04DX003 (ip), vehicle: saline with Tween-80
  survivor count: 4 of 6
[5]
  survivor count: 0 of 6
[11]
  survivor count: 1 of 6
[6]
  survivor count: 0 of 6
[7]
  survivor count: 0 of 6

## Nc1ncnc2nc(-c3ccc(SCc4ccccc4)cc3)[nH]c12
dose: 100.0 mg/kg/injection, schedule: Q04DX002 (ip), vehicle: saline with Tween-80
  survivor count: 3 of 3
[8]
  survivor count: 6 of 6
[9]
  survivor count: 6 of 6
[12]
  survivor count: 3 of 3
[10]
  survivor count: 6 of 6

## C=CCCCCC/C=C/CCCCCC
[12]
  survivor count: 0 of 6

## CCCCCCCCCCCCNC(=O)c1ccccc1O
dose: 200.0 mg/kg/injection, schedule: Q01DX009 (ip), vehicle: other
  survivor count: 3 of 6

## CC1(C)C2CCC(CCO)C1C2 (configuration not stated)
dose: 150.0 mg/kg/injection, schedule: Q01DX009 (ip), vehicle: saline with Tween-80
  survivor count: 0 of 6
[9]
  survivor count: 4 of 6
dose: 225.0 mg/kg/injection, schedule: Q01DX009 (ip), vehicle: saline with Tween-80
  survivor count: 0 of 6
[10]
  survivor count: 0 of 6

## CN(C)C(=S)S/C=C\C(=O)O
dose: 100.0 mg/kg/injection, schedule: Q04DX002 (ip), vehicle: Klucel (hydroxypropylcellulose) (HPC)
  T/C: 125 % of control

## O=C(O)c1cc([N+](=O)[O-])cs1
[7]
  survivor count: 2 of 4

## [O-][n+]1ccccc1/C=C\c1ccccc1
[7]
  survivor count: 1 of 6

## FC1(F)C=C(c2ccccc2)C1(Cl)Cl
dose: 200.0 mg/kg/injection, schedule: Q01DX009 (ip), vehicle: Klucel (hydroxypropylcellulose) (HPC)
  survivor count: 6 of 6
dose: 400.0 mg/kg/injection, schedule: Q01DX009 (ip), vehicle: Klucel (hydroxypropylcellulose) (HPC)
  survivor count: 3 of 6
[3]
  survivor count: 3 of 6

## CC(CN)NCc1ccccc1 (configuration not stated)
[2]
  survivor count: 3 of 6

## CCOC(=O)Nc1nccs1
[10]
  survivor count: 1 of 6

## c1ccc(COCC[P+](c2ccccc2)(c2ccccc2)c2ccccc2)cc1
dose: 10.0 mg/kg/injection, schedule: Q01DX001 (ip), vehicle: saline
  survivor count: 4 of 4
[4]
  survivor count: 0 of 4
[5]
  survivor count: 0 of 4
dose: 80.0 mg/kg/injection, schedule: Q01DX001 (ip), vehicle: saline
  survivor count: 0 of 4
[11]
  survivor count: 0 of 4
[6]
  survivor count: 0 of 4
[7]
  survivor count: 0 of 4

## O=P1(N(CCF)CCCl)NCCCO1 (configuration not stated)
dose: 100.0 mg/kg/injection, schedule: Q01DX Z (ip), vehicle: other
  survivor count: 1 of 6
dose: 300.0 mg/kg/injection, schedule: Q01DX Z (ip), vehicle: other
  survivor count: 0 of 6

## Nc1ccc(OCC(=O)Nc2ccc(S(=O)(=O)F)cc2)cc1
[7]
  survivor count: 3 of 6

## Cc1cc(Cl)c(OC(=O)Nc2ccccc2F)cc1C
dose: 200.0 mg/kg/injection, schedule: Q01DX009 (ip), vehicle: saline with Tween-80
  survivor count: 6 of 6
[12]
  survivor count: 2 of 6
